{"sequences": {"note": "By UniProt entry, the sequences of proteins in these tests, tags left out. Where a name states a change or a piece, a line headed by the entry shows the natural chain unless it says otherwise.", "UniProt P18054": "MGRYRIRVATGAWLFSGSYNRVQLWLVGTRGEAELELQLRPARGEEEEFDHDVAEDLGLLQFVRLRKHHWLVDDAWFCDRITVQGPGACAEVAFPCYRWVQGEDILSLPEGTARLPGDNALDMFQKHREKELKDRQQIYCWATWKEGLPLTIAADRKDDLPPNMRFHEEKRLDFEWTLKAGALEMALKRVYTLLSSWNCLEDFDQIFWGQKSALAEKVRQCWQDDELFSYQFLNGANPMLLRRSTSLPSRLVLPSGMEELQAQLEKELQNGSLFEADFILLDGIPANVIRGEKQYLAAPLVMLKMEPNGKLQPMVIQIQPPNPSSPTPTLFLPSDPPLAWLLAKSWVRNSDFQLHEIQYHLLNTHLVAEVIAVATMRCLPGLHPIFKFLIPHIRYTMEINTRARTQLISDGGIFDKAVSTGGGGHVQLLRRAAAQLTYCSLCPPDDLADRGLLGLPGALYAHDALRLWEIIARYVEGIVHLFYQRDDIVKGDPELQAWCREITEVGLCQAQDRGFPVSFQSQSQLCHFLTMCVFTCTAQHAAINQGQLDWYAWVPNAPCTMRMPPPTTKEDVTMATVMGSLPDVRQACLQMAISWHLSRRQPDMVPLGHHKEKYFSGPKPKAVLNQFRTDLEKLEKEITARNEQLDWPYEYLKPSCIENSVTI"}, "source": "PubChem BioAssay AID1671190", "about": "(National Center for Advancing Translational Sciences (NCATS), 2021)", "note": "The whole screen tested about 580,000 compounds, of which about 6,100 (1.1%) were called active. Inconclusive results, whose numbers are uncertain, are shown with a selection of clear calls. The call rests on the fitted dose curve; in most records, active means well fitted inhibition curve with a large enough effect; inconclusive means small, poorly fitted or top-dose-only effect, or another doubt; inactive means no such curve, though single readings can be large or run the other way. Potencies beside an inconclusive call are fits to weak or partial responses and may not hold up. On the % scale 0 is the no-effect control and ±100 the full control effect; potency means the concentration at half of the fitted maximal effect.", "data": [{"target": "Polyunsaturated fatty acid lipoxygenase ALOX12 (Homo sapiens) (UniProt P18054)", "assay": "Primary qHTS assay for inhibitors of human arachidonate 12S-lipoxygenase (ALOX12): Round 2", "conditions": "purified 12hLO, xylenol orange hydroperoxide absorbance; activity change, negative = inhibition: at 108 µM (top of the series) unless noted", "in_short": "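Purified human 12hLO at 150 nM in 25 mM Hepes, 0.01% Triton X-100, pH 7.0, preincubated 15 min at room temperature with compound. Reaction started with 40 uM arachidonic acid, 30 min at room temperature. Hydroperoxide measured by Fe-xylenol orange, 573/405 nm absorbance ratio.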", "values": [{"compound": "Cc1ccc2nc(-c3cccs3)c(Nc3ccc4c(c3)OCCO4)n2c1", "Potency": "inconclusive: 2.24 µM [inhibitor, full curve, poor fit]"}, {"compound": "COc1ccc2nc(NC(=O)C3CCCN(S(=O)(=O)c4cccc5nonc45)C3)sc2c1", "note": "(stereo not drawn)", "Potency": "inactive"}, {"compound": "CCn1c(Cc2ccccc2)nnc1SCC(=O)c1c(N)n(C2CC2)c(=O)[nH]c1=O", "Potency": "inactive"}, {"compound": "Fc1ccc(-c2nc3ccc(Cl)cn3c2Cc2ccsc2)cc1", "Potency": "inconclusive: 112 µM [inhibitor, single point]"}, {"compound": "CCOC(=O)c1ccc(NC(=O)N2CC3CCCN3c3ccccc32)cc1", "note": "(stereo not drawn)", "Potency": "inconclusive: 112 µM [inhibitor, single point]"}, {"compound": "COC(=O)N(NC(=O)C(O)(C(C)C)C(C)C)c1ccccc1", "Potency": "inconclusive: 44.7 µM [inhibitor, single point]"}, {"compound": "O=C(NCCN1CCC(n2c(=O)[nH]c3ccccc32)CC1)c1ccc(OC(F)(F)F)cc1", "Potency": "inconclusive: 50.1 µM [inhibitor, partial curve, poor fit]"}, {"compound": "O=C(N/N=C1\\C(=O)c2cccc3cccc1c23)c1ccc(O)cc1", "Potency": "inactive"}, {"compound": "CC(C)(C)OC(=O)N1CCCN(C(c2cc3ccccc3o2)c2nnnn2C(C)(C)C)CC1", "note": "(stereo not drawn)", "Potency": "inactive"}, {"compound": "O=C(Nc1ccccc1C(=O)O)c1cccc(N2C(=O)c3ccccc3C2=O)c1", "Potency": "inconclusive: 141 µM [inhibitor, partial curve, poor fit]"}, {"compound": "CC1CCCN(C(=S)SCC(=O)c2cc(Br)cc(Br)c2O)C1", "note": "(stereo not drawn)", "Potency": "active: 6.31 µM"}, {"compound": "N#Cc1cccc(NC(=O)N2CC3(CCN(C(=O)c4cnccn4)CC3)C2)c1", "Potency": "inactive"}, {"compound": "Cc1ccc(S(=O)(=O)N2CCC(C)CC2)c([N+](=O)[O-])c1", "Potency": "inconclusive: 112 µM [inhibitor, single point]"}, {"compound": "CN1CCN(C(=O)C2CCCN(S(=O)(=O)c3ccc(F)cc3)C2)CC1", "note": "(stereo not drawn)", "Potency": "inconclusive: 0.631 µM [inhibitor, full curve]"}, {"compound": "CCOc1cc(C2C(C#N)=C(N)OC(C)=C2C(C)=O)cc(Br)c1O", "note": "(stereo not drawn)", "Potency": "inconclusive: 14.1 µM [inhibitor, partial curve, poor fit]"}, {"compound": "NS(=O)(=O)c1ccc(NC(=S)NC2CCCC2)cc1", "Potency": "inconclusive: 79.4 µM [inhibitor, partial curve, poor fit]"}, {"compound": "O=C(Cn1cc(C(=O)c2ccco2)c2ccccc21)Nc1ccccc1", "Potency": "inactive"}, {"compound": "Cc1c(C(=O)N2CCOCC2)[nH]c2c1C(=O)CC(c1ccccc1Cl)C2", "note": "(stereo not drawn)", "Potency": "inconclusive: 50.1 µM [inhibitor, partial curve, poor fit]"}, {"compound": "COc1ccc(Cl)cc1Nc1ccc2cc(S(=O)(=O)N3CCCCC3)ccc2n1", "Potency": "active: 50.1 µM"}, {"compound": "CCOC(=O)N1CCN(S(=O)(=O)c2ccc(C(=O)N(CCCN(C)C)c3nc4c(C)c(C)ccc4s3)cc2)CC1", "Potency": "inconclusive: 56.2 µM [inhibitor, partial curve, poor fit]"}, {"compound": "O=C(NC(C(=O)c1ccccc1)c1ccccc1)c1ccccc1", "note": "(stereo not drawn)", "Potency": "inconclusive: 100 µM [inhibitor, partial curve, poor fit]"}, {"compound": "CCc1ccc(NS(=O)(=O)c2ccc3[nH]cc(C(=O)NCc4ccc(C)cc4)c(=O)c3c2)cc1", "Potency": "inconclusive: 50.1 µM [inhibitor, partial curve, poor fit]"}, {"compound": "Cc1cc(S(=O)(=O)NCc2nc(N3CCCC3)c3cc(Cl)ccc3n2)c(C)s1", "Potency": "inactive"}, {"compound": "CCc1ccc(NC(=S)NC2CC3CCCC(C2)N3Cc2ccccc2)cc1", "note": "(stereo not drawn)", "Potency": "inconclusive: 79.4 µM [inhibitor, partial curve, poor fit]"}, {"compound": "CCCCS(=O)(=O)Nc1ccc2c(c1)ncn2C1CCCCC1", "Potency": "inactive"}, {"compound": "CCc1nc2c(OCc3ccc(Cl)cc3Cl)cccn2c1N(C)C(=O)C(C)C", "Potency": "inconclusive: 141 µM [inhibitor, single point]"}, {"compound": "Cc1c(Cl)cccc1NC(=O)C1CC2CCC1C2", "note": "(stereo not drawn)", "Potency": "inconclusive: 141 µM [inhibitor, single point]"}, {"compound": "Cc1ccc(N2CCN(S(=O)(=O)c3cccs3)CC2C)cc1", "note": "(stereo not drawn)", "Potency": "inconclusive: 89.1 µM [inhibitor, single point]"}, {"compound": "Cc1cc(CSc2nnc(-c3cccnc3)n2Cc2ccco2)on1", "Potency": "inactive"}, {"compound": "COC(=O)CSc1nc2ccc(NC(C)=O)cc2s1", "activity change, negative = inhibition": "inconclusive: -31.3% [inhibitor]"}, {"compound": "COc1ccc(Nc2nc(-c3sc(C)nc3C)cs2)cc1", "Potency": "inconclusive: 56.2 µM [inhibitor, partial curve, poor fit]"}, {"compound": "Cc1ccc(-c2cn3c(n2)sc2cc(C(=O)NC4CCCc5ccccc54)ccc23)cc1", "note": "(stereo not drawn)", "Potency": "inconclusive: 100 µM [inhibitor, partial curve, poor fit]"}, {"compound": "CCOC(=O)C(N)CSC1CC(=O)N(c2ccc(C(=O)OC)cc2)C1=O", "note": "(stereo not drawn)", "Potency": "inconclusive: 31.6 µM [inhibitor, partial curve, poor fit]"}, {"compound": "O=C(C1=C(O)C(=O)N(CCOCCO)C1c1cccc([N+](=O)[O-])c1)c1cccs1", "note": "(stereo not drawn)", "Potency": "inconclusive: 25.1 µM [inhibitor, partial curve, poor fit]"}, {"compound": "COc1ccc(C(C)NC(=O)c2noc(-c3ccc(C)cc3)n2)cc1OC", "note": "(stereo not drawn)", "Potency": "inactive"}, {"compound": "CCn1cc(C(=O)N(C)c2ccc(C)c(C)c2)c2cc(OC)c(OC)cc2c1=O", "Potency": "inconclusive: 100 µM [inhibitor, single point]"}, {"compound": "NC(=O)[C@@H]1CN(C(=O)c2cocn2)C[C@H]1COc1ccccc1", "Potency": "inconclusive: 20 µM [inhibitor, partial curve, poor fit]"}, {"compound": "CCOc1ccc2cc(C3CC(c4ccco4)=NN3S(C)(=O)=O)c(Cl)nc2c1", "note": "(stereo not drawn)", "Potency": "inconclusive: 35.5 µM [inhibitor, partial curve, poor fit]"}, {"compound": "COc1ccccc1N1N=C(c2ccc([N+](=O)[O-])cc2)CC1c1ccccc1", "note": "(stereo not drawn)", "Potency": "inactive"}, {"compound": "On1c(-c2ccco2)nc2c1CCc1nonc1-2", "Potency": "inconclusive: 0.282 µM [inhibitor, full curve, poor fit]"}, {"compound": "Cn1c(=O)c2cc(NC(=O)NCc3ccccc3)ccc2n1Cc1cccc(C(F)(F)F)c1", "Potency": "inconclusive: 79.4 µM [inhibitor, partial curve, poor fit]"}, {"compound": "Cc1ccc(NS(=O)(=O)c2cccc(C(=O)NCC(c3cccs3)N3CCOCC3)c2)cc1", "note": "(stereo not drawn)", "Potency": "inconclusive: 112 µM [inhibitor, single point]"}, {"compound": "O=C(NC1(C(F)(F)F)C(=O)Nc2c1c(=O)[nH]c(=O)n2-c1ccc(F)cc1)c1cccs1", "note": "(stereo not drawn)", "Potency": "inconclusive: 4.47 µM [inhibitor, full curve, poor fit]"}, {"compound": "CN(CC(=O)Nc1ccc(Cl)c(Cl)c1)S(=O)(=O)Cc1ccc(F)cc1", "Potency": "inconclusive: 39.8 µM [inhibitor, partial curve, poor fit]"}, {"compound": "C=CCNCc1ccccc1F", "Potency": "inactive"}, {"compound": "Cc1nn(-c2ccccc2)c(C)c1/C=C1\\C(=O)N(C)C(=S)N1C", "Potency": "inconclusive: 6.31 µM [inhibitor, full curve, poor fit]"}, {"compound": "CCc1cccc2c(C(CC(=O)NCc3ccc4c(c3)OCO4)c3ccc(OC)c(OC)c3)c[nH]c12", "note": "(stereo not drawn)", "Potency": "inconclusive: 12.6 µM [inhibitor, full curve, poor fit]"}, {"compound": "CC1=C(/C=C/C(C)=C/C=C/C(C)=C\\C(=O)O)C(C)(C)CCC1", "Potency": "inconclusive: 44.7 µM [inhibitor, partial curve, poor fit]"}, {"compound": "CC1CCCCN1S(=O)(=O)c1ccc(NC(=O)c2cccc(-n3cnnn3)c2)cc1", "note": "(stereo not drawn)", "Potency": "inactive"}, {"compound": "COc1ccccc1-c1cnc(C(O)c2cc(C)ccc2C)[nH]1", "note": "(stereo not drawn)", "Potency": "inactive"}, {"compound": "CS(=O)(=O)N1CCN(c2c(Cl)cccc2[N+](=O)[O-])CC1", "Potency": "inconclusive: 141 µM [inhibitor, single point]"}, {"compound": "COc1ccc(OC)c(NC(=O)c2c(NCc3ccc(OC)c(OC)c3)sc3c2CCC3)c1", "Potency": "inconclusive: 79.4 µM [inhibitor, partial curve, poor fit]"}, {"compound": "CCc1ccc(NC(=O)Cc2c(C)c3ccc(OC)c(OC)c3oc2=O)cc1", "Potency": "inactive"}, {"compound": "C/C(=N/N1CCN(Cc2cccc3ccccc23)CC1)c1ccco1", "Potency": "inconclusive: 100 µM [inhibitor, single point]"}, {"compound": "O=C(c1ccc(Cl)cc1)N1CC2(CCCN(CC3CCCCC3)C2)Cc2ccccc21", "note": "(stereo not drawn)", "Potency": "inconclusive: 56.2 µM [inhibitor, partial curve, poor fit]"}, {"compound": "CCN(CC)c1ccc(/C=N/Nc2nc3ccccc3[nH]2)cc1", "Potency": "inconclusive: 141 µM [inhibitor, single point]"}, {"compound": "CC(=O)Nc1ccc(S(=O)(=O)NNC(=S)NCC2CCCO2)cc1", "note": "(stereo not drawn)", "Potency": "inconclusive: 10 µM [inhibitor, full curve, poor fit]"}, {"compound": "CCC1CCc2c(sc(NC(=O)c3ccoc3C)c2C(N)=O)C1", "note": "(stereo not drawn)", "Potency": "inconclusive: 15.8 µM [inhibitor, partial curve, poor fit]"}, {"compound": "CC/C(=C(/CC)c1ccc(O)cc1)c1ccc(O)cc1", "Potency": "inconclusive: 70.8 µM [inhibitor, partial curve, poor fit]"}, {"compound": "Cc1cc2cc(NS(=O)(=O)c3cc(F)cc(F)c3)ccc2[nH]1", "Potency": "inconclusive: 79.4 µM [inhibitor, single point]"}, {"compound": "Cc1ccc(NS(=O)(=O)c2cc(NC(=O)c3ccc4c(c3)NC(=O)CS4)ccc2C)c(C)c1", "Potency": "inconclusive: 70.8 µM [inhibitor, partial curve, poor fit]"}, {"compound": "O=C(N/N=C/c1ccncc1)NC12CC3CC(CC(C3)C1)C2", "Potency": "inactive"}, {"compound": "C[C@@H]1NC(=O)c2cc([N+](=O)[O-])cc(F)c2NCCC[C@@H](C(N)=O)NC(=O)[C@H](CC(N)=O)NC1=O", "Potency": "inconclusive: 3.55 µM [inhibitor, full curve, poor fit]"}]}]}
